Experiment: general procedure: solution-phase peptide synthesis; HATU/DIEA
Conditions: late stage modification step

Row | Substance | step yield [%]
1 | (S)-11-benzyl-1-(9H-fluoren-9-yl)-20,20-dimethyl-3,6,9,12,15-pentaoxo-2,18-dioxa-4,7,10,13,16-pentaazahenicosan-21-oic acid | 84.8
2 | Benzyl (S)-11-benzyl-1-(9H-fluoren-9-yl)-20,20-dimethyl-3 9,12,15-pentaoxo-2,18-dioxa-4,7,10,13,10-pentaazahenicosan-2l -oate | 29.2

Reference: US20250115677A1 (BeiGene Switzerland GmbH, priority 2022, published 2025)
